Holding throughout (type): biochemical
One assay addresses panel of kinases (Homo sapiens, UniProt P51813). Kind of assay: Inhibition of a panel of kinases (in vitro HotSpot kinase assay, 33P-ATP, 1 μM ATP), other kinases. Conditions: read-out: BMX-WT IC50, BMX wild-type. The method, then: (§1) Example 63: Inhibition of a Panel of Kinases The degree of inhibition of a panel of kinases is determined using the in vitro HotSpot kinase assay (purified enzymes, ^33P-ATP, an appropriate substrate and 1 μM ATP).

Amino acid sequences for entries named in this document (tags omitted).
UniProt P51813, whole entry: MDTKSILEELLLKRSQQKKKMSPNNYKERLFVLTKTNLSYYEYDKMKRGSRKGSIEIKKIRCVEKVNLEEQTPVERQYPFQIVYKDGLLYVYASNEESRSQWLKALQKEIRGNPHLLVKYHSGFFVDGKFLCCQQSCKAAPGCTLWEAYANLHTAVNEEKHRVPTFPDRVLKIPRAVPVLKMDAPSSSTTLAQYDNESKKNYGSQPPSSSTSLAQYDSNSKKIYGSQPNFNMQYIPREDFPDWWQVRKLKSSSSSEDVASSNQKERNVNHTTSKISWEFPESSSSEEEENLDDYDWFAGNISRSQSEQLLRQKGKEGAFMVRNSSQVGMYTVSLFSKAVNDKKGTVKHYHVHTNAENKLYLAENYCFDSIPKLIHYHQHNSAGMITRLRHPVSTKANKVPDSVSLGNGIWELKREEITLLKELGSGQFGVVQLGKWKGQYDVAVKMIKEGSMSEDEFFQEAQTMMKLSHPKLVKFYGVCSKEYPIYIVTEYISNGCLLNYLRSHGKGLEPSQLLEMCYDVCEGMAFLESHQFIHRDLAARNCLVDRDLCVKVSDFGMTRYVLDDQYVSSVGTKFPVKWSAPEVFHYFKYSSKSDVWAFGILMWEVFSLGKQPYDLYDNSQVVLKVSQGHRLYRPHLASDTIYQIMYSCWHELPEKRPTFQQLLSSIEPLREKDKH
UniProt Q06187, whole entry: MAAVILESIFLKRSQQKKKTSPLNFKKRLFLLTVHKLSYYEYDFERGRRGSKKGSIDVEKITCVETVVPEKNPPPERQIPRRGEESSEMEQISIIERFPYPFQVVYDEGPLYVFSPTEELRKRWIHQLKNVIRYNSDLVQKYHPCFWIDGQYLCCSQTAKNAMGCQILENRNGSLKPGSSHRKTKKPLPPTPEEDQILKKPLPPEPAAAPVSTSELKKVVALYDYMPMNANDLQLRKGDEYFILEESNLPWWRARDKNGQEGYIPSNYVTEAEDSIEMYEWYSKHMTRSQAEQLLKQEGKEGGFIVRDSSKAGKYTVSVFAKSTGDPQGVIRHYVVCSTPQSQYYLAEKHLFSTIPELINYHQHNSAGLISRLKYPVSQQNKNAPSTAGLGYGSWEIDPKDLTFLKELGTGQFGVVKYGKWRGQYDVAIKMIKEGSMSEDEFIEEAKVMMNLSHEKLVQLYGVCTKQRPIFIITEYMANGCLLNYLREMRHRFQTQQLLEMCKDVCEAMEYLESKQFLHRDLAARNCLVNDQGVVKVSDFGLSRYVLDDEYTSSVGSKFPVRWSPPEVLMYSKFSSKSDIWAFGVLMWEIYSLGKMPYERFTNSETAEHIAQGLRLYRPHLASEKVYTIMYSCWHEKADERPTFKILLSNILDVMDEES
UniProt P42680, whole entry: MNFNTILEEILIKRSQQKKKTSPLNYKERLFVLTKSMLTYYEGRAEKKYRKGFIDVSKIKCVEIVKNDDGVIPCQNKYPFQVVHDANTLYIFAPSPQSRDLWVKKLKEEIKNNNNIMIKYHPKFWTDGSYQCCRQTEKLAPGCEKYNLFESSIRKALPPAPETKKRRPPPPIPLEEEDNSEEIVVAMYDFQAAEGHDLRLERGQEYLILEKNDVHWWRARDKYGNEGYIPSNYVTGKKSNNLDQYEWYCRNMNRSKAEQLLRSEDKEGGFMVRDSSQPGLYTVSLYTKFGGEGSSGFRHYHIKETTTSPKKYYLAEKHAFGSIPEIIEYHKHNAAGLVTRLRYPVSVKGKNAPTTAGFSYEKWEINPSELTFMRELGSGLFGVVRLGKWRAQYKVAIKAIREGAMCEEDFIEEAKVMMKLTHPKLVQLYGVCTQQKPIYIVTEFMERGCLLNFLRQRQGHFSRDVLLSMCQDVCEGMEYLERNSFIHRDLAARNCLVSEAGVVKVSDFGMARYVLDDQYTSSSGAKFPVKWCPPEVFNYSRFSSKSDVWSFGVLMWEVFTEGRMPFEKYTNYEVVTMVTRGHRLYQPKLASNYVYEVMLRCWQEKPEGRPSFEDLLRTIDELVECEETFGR

In the next assay the target is Btk (Homo sapiens, UniProt Q06187). The experiment in a line: Btk in vitro inhibitory activity (one of Method A TR-FRET, Method B electrophoretic mobility shift, Method C radiometric filter binding). To be noted: read-out: Btk-WT IC50; wild-type Btk. The procedure: Example 62a: Btk In Vitro Inhibitory Activity (Method A)
Btk kinase activity is determined using a time-resolved fluorescence resonance energy transfer (TR-FRET) methodology. Measurements are performed in a reaction volume of 50 μL using 96-well assay plates. Kinase enzyme, inhibitor, ATP (at the Km for the kinase), and 1 μM peptide substrate (Biotin-AVLESEEELYSSARQ-NH2) are incubated in a reaction buffer composed of 20 mM Tris, 50 mM NaCl, MgCl2 (5-25 mM depending on the kinase), MnCl2 (0-10 mM), 1 mM DTT, 0.1 mM EDTA, 0.01% bovine serum albumin, 0.005% Tween-20, and 10% DMSO at pH 7.4 for one hour. […] The TR-FRET signal is measured on a multimode plate reader with an excitation wavelength (λEx) of 330 nm and detection wavelengths (λEm) of 615 and 665 nm. Activity is determined by the ratio of the fluorescence at 665 nm to that at 615 nm. For each compound, enzyme activity is measured at various concentrations of compound. Negative control reactions are performed in the absence of inhibitor in replicates of six, and two no-enzyme controls are used to determine baseline fluorescence levels. […]
Kinase activity is measured in vitro using electrophoretic mobility shift assay. […] The terminated reactions are analyzed using a 12 channel LabChip® 3000 microfluidic detection instrument (Caliper Life Sciences). […] As substrate and product peptides are separated, two peaks of fluorescence are observed. […]

The next assay has as its target TEC (Homo sapiens, UniProt P42680). The experiment in a line: Inhibition of a panel of kinases (in vitro HotSpot kinase assay, 33P-ATP, 1 μM ATP). Conditions: read-out: TEC IC50. The procedure: as §1

In patent US20180194762A1 (Pharmacyclics LLC, priority 2017, published 2018) one finds IC50 data, which are given here for 2 compounds.

Each structure is given as a SMILES string. The structures given here were assigned with low confidence; some may be wrong.

`N[C@@H]1CCN(c2n[nH]c3nccc(-c4ccc(CNC(=O)c5nc6ccccc6o5)c(F)c4)c23)C1`: the figures for the half-maximal inhibitory concentration (IC50) on panel of kinases, at Btk and on TEC were 576 nM, 98.6 nM and 1610 nM, respectively.
Regarding `C=CC(=O)N1CC[C@@H](Nc2n[nH]c3nccc(-c4ccc(C(=O)NCc5noc(C(C)(C)C)n5)c(F)c4)c23)C1`, the IC50 on panel of kinases worked out at 346 nM; on Btk it was 857 nM; at TEC, 4370 nM.
